Some of the results follow.

By UniProt entry, the sequences of proteins in these tests, tags left out. Where a name states a change or a piece, a line headed by the entry shows the natural chain unless it says otherwise.
UniProt P61758, whole entry, looked up: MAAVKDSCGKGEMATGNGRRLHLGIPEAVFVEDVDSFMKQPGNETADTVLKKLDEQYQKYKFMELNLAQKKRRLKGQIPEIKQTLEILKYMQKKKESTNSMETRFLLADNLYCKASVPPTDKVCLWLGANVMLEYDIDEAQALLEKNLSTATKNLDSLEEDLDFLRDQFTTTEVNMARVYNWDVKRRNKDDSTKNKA
UniProt Q8TED0: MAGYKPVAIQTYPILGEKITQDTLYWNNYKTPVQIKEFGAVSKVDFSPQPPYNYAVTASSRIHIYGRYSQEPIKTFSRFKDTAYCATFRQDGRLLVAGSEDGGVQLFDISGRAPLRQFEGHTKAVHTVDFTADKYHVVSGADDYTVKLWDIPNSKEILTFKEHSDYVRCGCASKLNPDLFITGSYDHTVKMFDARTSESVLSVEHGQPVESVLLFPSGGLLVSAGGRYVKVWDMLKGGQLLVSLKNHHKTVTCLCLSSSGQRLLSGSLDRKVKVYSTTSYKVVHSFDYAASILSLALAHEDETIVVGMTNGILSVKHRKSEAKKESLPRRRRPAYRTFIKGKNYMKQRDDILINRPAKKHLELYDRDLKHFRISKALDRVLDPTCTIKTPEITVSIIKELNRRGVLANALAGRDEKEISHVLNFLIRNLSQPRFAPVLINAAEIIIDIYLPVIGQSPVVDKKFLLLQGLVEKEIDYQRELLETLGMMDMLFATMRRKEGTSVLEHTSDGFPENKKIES
UniProt P11172: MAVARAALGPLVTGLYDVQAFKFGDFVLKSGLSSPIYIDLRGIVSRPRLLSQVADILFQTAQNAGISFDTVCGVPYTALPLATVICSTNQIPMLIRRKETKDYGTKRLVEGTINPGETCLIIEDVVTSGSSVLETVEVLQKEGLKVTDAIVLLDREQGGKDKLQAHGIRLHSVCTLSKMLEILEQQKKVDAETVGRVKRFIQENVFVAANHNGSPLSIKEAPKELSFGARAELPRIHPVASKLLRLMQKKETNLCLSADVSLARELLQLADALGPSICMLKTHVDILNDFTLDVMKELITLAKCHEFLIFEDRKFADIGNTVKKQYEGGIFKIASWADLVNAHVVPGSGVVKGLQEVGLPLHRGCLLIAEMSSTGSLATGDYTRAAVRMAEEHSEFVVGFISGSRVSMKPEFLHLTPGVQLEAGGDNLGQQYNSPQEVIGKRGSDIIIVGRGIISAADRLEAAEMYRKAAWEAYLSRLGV
UniProt Q9BZI7: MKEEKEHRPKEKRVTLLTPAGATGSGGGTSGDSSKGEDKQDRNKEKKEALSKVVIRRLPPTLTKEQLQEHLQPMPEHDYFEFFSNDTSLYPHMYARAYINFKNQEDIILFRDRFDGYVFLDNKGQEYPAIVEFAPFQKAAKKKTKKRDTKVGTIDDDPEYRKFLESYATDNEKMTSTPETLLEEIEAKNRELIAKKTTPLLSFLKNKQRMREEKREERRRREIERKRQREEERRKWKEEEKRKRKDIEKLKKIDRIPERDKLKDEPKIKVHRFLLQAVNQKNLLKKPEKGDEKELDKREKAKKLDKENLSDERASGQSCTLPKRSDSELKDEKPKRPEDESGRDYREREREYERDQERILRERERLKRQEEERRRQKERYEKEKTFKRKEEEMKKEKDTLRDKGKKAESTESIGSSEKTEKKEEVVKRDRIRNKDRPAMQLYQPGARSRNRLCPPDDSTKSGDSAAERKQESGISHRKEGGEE
UniProt Q9P2Y5: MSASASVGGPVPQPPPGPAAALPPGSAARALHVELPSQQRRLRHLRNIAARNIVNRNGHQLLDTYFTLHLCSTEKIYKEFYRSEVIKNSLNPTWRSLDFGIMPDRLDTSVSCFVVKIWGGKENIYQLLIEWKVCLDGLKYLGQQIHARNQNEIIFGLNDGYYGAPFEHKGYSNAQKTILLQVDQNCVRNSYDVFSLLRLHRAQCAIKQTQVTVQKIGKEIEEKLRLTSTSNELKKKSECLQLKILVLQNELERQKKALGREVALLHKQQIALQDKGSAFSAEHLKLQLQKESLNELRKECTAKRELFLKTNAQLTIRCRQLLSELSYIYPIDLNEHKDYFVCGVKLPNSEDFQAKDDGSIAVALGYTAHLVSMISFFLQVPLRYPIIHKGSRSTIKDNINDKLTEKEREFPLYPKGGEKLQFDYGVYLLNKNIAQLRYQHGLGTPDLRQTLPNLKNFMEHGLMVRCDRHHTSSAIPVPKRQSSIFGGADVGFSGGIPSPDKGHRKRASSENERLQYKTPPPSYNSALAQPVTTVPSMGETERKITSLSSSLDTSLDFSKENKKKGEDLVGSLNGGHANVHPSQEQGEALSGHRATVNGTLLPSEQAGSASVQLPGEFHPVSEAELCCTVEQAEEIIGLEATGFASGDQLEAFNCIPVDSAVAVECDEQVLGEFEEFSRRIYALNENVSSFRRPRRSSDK
UniProt O75379: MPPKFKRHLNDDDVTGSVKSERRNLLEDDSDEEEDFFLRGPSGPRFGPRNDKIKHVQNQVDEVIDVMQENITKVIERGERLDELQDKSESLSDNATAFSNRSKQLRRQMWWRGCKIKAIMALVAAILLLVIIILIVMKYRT
UniProt Q9NUQ7: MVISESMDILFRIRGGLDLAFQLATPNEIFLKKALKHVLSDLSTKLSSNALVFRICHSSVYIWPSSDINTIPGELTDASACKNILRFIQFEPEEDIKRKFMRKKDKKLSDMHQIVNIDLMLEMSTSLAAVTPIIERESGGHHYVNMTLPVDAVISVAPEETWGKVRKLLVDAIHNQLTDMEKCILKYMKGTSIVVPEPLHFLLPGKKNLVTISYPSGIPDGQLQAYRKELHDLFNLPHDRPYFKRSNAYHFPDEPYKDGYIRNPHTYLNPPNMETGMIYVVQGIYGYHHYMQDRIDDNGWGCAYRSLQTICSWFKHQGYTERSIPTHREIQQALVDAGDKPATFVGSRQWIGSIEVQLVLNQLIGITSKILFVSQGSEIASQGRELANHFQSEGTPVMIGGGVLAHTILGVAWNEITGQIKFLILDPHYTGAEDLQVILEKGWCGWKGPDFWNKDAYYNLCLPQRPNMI
UniProt Q08AM6: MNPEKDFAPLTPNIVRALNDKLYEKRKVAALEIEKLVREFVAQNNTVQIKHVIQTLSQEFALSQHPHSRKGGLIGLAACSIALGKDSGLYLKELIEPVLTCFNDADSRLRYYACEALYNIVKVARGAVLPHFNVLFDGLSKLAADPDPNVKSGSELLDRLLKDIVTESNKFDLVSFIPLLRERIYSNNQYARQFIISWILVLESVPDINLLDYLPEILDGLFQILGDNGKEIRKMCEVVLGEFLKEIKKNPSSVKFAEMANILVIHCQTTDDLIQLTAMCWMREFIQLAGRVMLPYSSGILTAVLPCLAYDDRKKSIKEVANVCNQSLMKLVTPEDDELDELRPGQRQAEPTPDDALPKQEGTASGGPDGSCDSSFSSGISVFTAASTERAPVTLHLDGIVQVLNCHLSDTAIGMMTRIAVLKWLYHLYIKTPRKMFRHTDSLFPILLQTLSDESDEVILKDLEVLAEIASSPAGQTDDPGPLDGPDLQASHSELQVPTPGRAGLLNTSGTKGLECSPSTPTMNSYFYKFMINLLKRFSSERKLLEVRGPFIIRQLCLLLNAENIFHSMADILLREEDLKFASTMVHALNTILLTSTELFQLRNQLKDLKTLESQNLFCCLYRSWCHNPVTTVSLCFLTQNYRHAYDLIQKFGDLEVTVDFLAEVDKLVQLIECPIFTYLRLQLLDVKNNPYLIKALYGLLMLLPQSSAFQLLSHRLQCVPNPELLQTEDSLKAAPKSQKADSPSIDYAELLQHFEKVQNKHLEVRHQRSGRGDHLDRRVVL
UniProt Q9Y6I4: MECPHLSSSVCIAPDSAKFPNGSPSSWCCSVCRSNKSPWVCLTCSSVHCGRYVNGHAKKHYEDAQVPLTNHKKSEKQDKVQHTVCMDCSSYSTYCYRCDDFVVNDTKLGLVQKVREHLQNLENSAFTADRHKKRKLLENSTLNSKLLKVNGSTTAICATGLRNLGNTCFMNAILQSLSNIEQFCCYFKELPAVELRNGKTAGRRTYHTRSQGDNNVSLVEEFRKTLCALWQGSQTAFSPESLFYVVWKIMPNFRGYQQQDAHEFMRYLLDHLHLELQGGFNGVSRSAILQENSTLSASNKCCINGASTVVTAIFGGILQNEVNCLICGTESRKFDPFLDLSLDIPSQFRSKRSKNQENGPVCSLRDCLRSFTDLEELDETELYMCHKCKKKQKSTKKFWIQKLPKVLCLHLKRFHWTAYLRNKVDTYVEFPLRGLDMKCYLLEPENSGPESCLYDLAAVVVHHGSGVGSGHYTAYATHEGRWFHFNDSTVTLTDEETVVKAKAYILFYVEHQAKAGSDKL
UniProt Q8IWV8: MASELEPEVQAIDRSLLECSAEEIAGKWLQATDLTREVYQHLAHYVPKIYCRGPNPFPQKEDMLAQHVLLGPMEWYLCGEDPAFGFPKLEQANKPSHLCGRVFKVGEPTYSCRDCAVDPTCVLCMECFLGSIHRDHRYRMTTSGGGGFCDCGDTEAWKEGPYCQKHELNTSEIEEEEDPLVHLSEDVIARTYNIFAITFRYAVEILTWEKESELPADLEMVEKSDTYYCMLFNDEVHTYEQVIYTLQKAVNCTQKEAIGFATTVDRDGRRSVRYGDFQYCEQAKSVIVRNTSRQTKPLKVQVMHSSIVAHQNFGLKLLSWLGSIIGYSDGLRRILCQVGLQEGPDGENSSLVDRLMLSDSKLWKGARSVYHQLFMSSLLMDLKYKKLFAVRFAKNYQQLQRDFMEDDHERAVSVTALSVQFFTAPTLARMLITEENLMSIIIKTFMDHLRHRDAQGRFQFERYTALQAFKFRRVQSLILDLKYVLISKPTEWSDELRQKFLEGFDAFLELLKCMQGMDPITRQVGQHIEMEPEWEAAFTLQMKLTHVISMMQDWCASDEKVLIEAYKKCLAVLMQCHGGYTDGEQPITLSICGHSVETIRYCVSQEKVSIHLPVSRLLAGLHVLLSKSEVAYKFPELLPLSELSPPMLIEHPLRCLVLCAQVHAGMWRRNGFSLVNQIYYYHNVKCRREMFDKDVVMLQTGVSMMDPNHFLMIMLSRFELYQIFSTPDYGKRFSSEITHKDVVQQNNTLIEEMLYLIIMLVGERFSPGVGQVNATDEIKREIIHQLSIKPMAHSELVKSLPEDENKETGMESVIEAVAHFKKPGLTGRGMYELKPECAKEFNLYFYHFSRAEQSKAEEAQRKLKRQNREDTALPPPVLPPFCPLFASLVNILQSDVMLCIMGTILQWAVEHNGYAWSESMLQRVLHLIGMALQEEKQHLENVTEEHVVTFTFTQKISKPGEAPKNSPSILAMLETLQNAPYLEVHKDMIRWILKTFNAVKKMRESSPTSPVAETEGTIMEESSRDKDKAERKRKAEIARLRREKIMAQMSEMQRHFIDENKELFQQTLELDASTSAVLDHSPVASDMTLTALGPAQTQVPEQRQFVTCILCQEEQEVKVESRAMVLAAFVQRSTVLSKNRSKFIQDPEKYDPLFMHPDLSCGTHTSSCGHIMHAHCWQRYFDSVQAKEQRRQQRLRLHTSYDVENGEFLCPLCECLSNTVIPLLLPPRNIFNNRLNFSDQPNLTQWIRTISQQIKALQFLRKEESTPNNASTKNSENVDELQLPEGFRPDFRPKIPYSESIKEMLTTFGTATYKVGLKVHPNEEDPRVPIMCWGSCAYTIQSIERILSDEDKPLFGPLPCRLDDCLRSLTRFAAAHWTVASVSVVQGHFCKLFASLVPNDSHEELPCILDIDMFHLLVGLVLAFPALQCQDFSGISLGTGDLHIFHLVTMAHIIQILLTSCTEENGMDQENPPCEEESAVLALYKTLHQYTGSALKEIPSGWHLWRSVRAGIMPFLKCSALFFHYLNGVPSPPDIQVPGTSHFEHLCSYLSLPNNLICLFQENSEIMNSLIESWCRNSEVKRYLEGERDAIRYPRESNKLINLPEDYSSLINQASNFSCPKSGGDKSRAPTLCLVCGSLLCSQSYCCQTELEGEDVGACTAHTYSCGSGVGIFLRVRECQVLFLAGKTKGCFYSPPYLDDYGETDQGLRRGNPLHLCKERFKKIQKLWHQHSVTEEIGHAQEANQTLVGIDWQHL
UniProt Q9UBK9, whole entry, looked up: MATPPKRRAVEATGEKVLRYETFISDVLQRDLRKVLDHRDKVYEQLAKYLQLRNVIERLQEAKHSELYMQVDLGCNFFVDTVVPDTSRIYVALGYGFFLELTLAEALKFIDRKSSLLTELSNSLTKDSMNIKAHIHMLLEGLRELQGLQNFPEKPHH
UniProt P47985: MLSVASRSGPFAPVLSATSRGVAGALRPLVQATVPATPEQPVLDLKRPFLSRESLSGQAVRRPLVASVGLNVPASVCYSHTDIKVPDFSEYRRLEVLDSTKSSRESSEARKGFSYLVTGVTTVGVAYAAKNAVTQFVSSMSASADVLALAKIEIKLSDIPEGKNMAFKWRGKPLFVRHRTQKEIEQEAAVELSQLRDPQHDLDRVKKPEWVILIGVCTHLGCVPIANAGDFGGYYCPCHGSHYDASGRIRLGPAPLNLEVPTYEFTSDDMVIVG

From the supplement of paper PMC10849652 come the findings set out here.

Compound in this assay: C1CN(CCC1(CC2=CC=C(C=C2)Cl)N)C3=NC=NC4=C3C=CN4
The assay can be described thus: log2 fold change, soluble protein after heating vs DMSO (PISA); higher = thermal stabilisation; K562 cells, 10 uM, 30 min; active = over 0.2 and 3.5 SD of the protein, either way, in both replicates (recomputed). Summed up: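 Soluble protein was defined as the supernatant after 21,000xg for 90 min. It came from K562 cells at 2×10^6 cells/mL given 10 μM compound for 30 min, heated in aliquots for 3 min across 48°C-58°C, pooled, and extracted in PBS with 0.5% NP-40 at 4°C, and was quantified by TMTpro 16plex LC-MS/MS with equalised channel sums. Thermal stability against control samples, from duplicates, is reported as log2 fold change.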
Regarding UHRF1BP1L (UniProt A0JNW5), the log2 fold change was inactive: 0.061. Consider VBP1 (UniProt P61758), for which the log2 fold change was inactive: 0.032. As for UTP15 (UniProt Q8TED0), the log2 fold change was inactive: -0.042.

As to UGP2 (UniProt Q16851), the log2 fold change is inactive: 0.043. As for UGT8 (UniProt Q16880), the log2 fold change was inactive: -0.036. The same measure for UMPS (UniProt P11172): inactive: 0.021. As for UPF3B (UniProt Q9BZI7), the log2 fold change is inactive: -0.097. In the case of UVRAG (UniProt Q9P2Y5) it was inactive: -0.034; in that of VAMP7 (UniProt P51809), inactive: 0.03. Turning to UQCRC2 (UniProt P22695), the log2 fold change is inactive: 0.03. Turning to VCP (UniProt P55072), the log2 fold change was inactive: 0.051. With URI1 isoform 4 (UniProt O94763), the log2 fold change is inactive: -0.003. The same measure for USO1 isoform 2 (UniProt O60763): inactive: -0.014; for UFC1 (UniProt Q9Y3C8): inactive: 0.038.

Turning to VAMP4 (UniProt O75379), the log2 fold change is inactive: 0.081. The same measure for UBL4A (UniProt P11441): inactive: -0.035. As to UFSP2 (UniProt Q9NUQ7), the log2 fold change is inactive: 0.009. In the case of VAC14 (UniProt Q08AM6) it was inactive: 0.003; in that of USP25 isoform 3 (UniProt Q9UHP3), inactive: 0.043; in that of USP3 (UniProt Q9Y6I4), inactive: 0.095. The same measure for USP16 (UniProt Q9Y5T5): inactive: -0.107; for USP15 (UniProt Q9Y4E8): inactive: -0.031; for UXS1 isoform 2 (UniProt Q8NBZ7): inactive: -0.007. For UGCG (UniProt Q16739), the log2 fold change was inactive: -0.103. In the case of USP34 (UniProt Q70CQ2) it was inactive: -0.086; in that of UQCC2 (UniProt Q9BRT2), inactive: 0.077. In the case of UBR2 (UniProt Q8IWV8) it was inactive: 0.018. As for URI1 (UniProt O94763), the log2 fold change was inactive: -0.111. With UXT isoform 2 (UniProt Q9UBK9), the log2 fold change was inactive: -0.086. On to UROD (UniProt P06132), for which the log2 fold change was inactive: 0.067.

For the target UCHL5 (UniProt Q9Y5K5), the log2 fold change is inactive: -0.01. Turning to UCHL5 isoform 3 (UniProt Q9Y5K5), the log2 fold change is inactive: -0.103. Take UQCRFS1 (UniProt P47985): the log2 fold change is inactive: 0.046. On to UBXN4 (UniProt Q92575), for which the log2 fold change was inactive: 0.025.

In the case of UCK2 (UniProt Q9BZX2), the log2 fold change is inactive: -0.029.
